# Laboratory results from PubChem BioAssay AID504343 (Broad Institute, 2011).
# The shares of active, inactive and inconclusive entries below differ from those in the screen. Active and inactive are the calls of the source.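 Rule for the calls: active = fitted curve reaches 10% of positive control caspase signal at or below top valid tested dose; inconclusive = flat fit at 30 to 70% activity, or unreliable fit; inactive = the rest.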
# Test: apoptosis induction in HMC1-8 cells – cell-based, caspase luminescence, dry powder, set 2, selectivity assay for Bcl2-A1 inhibitor project, dose response (AID 504343)
# Settings: HMC1-8 Mcl1-dependent cells, caspase-Glo luminescence, 4 h; at 35 µM (top of the series)
row,Compound,caspase activation
1,O=c1oc2ccccc2c(Nc2cc(Cl)cc(Cl)c2)c1[N+](=O)[O-],inconclusive: 4.85%
2,O=c1oc2ccccc2c(N2CCCCC2)c1[N+](=O)[O-],inconclusive: 30.2%
3,Cc1ccc(Sc2c([N+](=O)[O-])c(=O)oc3ccccc23)cc1,inconclusive: -25.4%
4,CCOC(=O)N1CCN(c2c([N+](=O)[O-])c(=O)n(C)c3ccccc23)CC1,inconclusive: 3%
5,O=C(Oc1cccc(/C=N/Nc2nc(Nc3ccccc3)nc(N3CCOCC3)n2)c1)c1ccco1,inconclusive: 6.43%
6,O=c1oc2ccccc2c(Sc2ccccc2)c1[N+](=O)[O-],inconclusive: -38.2%
7,Cc1ccc(Sc2cc(=O)n(C)c3ccccc23)cc1,inconclusive: -33.8%
8,Cn1c(=O)c([N+](=O)[O-])c(Nc2ccc(Cl)cc2)c2ccccc21,inactive: 1.67%
9,O=c1oc2ccccc2c(Cl)c1[N+](=O)[O-],inconclusive: -35.4%
10,CCSc1c([N+](=O)[O-])c(=O)oc2ccccc12,inconclusive: 15.9%
11,Cc1ccc(Sc2c([N+](=O)[O-])c(=O)n(C)c3ccccc23)cc1,inactive: 0.553%
12,CN1C(=O)C(C)(C)N(Cc2ccccc2)c2ccccc21,inactive: 9.6%
13,CCOCCCNc1c([N+](=O)[O-])c(=O)n(C)c2ccccc12,inactive: -2.94%
14,Cn1c(=O)c([N+](=O)[O-])c(Cl)c2ccccc21,inactive: -12.8%
